Measurements: patent US20260193348A1
Numbering of substitutions follows the chain as printed. Names and notes keep the numbering of the source. No constants are given. Whether binding was seen depends on the method and setting. Some results given as binding are weak or reduced against the parent protein; the word gives no strength.

Protein sequences, listed by entry. Tags and fused reporters are not part of them. Lines headed by an entry give the natural chain unless they say otherwise; changes in a name come on top.
UniProt P07766: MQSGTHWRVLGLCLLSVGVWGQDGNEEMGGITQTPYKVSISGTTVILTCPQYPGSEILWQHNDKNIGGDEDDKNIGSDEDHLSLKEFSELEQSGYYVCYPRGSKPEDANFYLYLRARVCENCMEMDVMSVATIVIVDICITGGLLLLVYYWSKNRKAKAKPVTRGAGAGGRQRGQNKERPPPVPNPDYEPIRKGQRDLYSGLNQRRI

B1: ch40E9 (antibody, V domains shown)
VH: EVQLQLSGPELVKPGASVKMSCKASGYTFSSYVIHWVKQKPGQGLEWIGYINPYNDVIKYNEKFKGKATLTSDKSSSTAYMELSSLTSEDSAVYYCARDSYYSYDGFAYWGQGTLVTVSA
VL: QIVLTQSPAIMSASPGEKVTMTCSASSSVSYMHWYQQKSGTSPKRWIYDTSKLASGVPARFSGSGSGTSYSLTISSMEAEDAATYYCQQWSSNPPTFGGGTKVEIK
B2: 40E9-L2H3 (antibody, V domains shown)
VH: EVQLVQSGAEVKKPGSSVKVSCKASGYTFSSYVIHWVRQAPGQCLEWMGYINPYNDVIKYNEKFKGRVTLTSDKSTSTAYMELSSLRSEDTAVYYCARDSYYSYDGFAYWGQGTLVTVSS
VL: EIVLTQSPDFQSVTPKEKVTITCSASSSVSYMHWYQQKPDQSPKRLIYDTSKLASGVPSRFSGSGSGTDFTLTINSLEAEDAATYYCQQWSSNPPTFGCGTKVEIK
B3: 40E9-L2H3-N55S.H (antibody, V domains shown)
VH: B2 VH with N55S
VL: B2 VL

Target: CD3εγ dimer (UniProt P07766)
Test: ELISA, coated soluble protein

With B1 as the binder, how does the binding read?
The binding was “binds”.

Which binding does the source give for B2 here?
The binding was “binds”.

For B3, which binding is on record?
Its binding is “binds”.
